Consider 14 targets from the supplement of paper PMC10849652.

Sequences of proteins named here, by UniProt entry; tags and fusion partners are left off. A change or cut given only in a name is not applied to a line headed by its entry.
UniProt P50570: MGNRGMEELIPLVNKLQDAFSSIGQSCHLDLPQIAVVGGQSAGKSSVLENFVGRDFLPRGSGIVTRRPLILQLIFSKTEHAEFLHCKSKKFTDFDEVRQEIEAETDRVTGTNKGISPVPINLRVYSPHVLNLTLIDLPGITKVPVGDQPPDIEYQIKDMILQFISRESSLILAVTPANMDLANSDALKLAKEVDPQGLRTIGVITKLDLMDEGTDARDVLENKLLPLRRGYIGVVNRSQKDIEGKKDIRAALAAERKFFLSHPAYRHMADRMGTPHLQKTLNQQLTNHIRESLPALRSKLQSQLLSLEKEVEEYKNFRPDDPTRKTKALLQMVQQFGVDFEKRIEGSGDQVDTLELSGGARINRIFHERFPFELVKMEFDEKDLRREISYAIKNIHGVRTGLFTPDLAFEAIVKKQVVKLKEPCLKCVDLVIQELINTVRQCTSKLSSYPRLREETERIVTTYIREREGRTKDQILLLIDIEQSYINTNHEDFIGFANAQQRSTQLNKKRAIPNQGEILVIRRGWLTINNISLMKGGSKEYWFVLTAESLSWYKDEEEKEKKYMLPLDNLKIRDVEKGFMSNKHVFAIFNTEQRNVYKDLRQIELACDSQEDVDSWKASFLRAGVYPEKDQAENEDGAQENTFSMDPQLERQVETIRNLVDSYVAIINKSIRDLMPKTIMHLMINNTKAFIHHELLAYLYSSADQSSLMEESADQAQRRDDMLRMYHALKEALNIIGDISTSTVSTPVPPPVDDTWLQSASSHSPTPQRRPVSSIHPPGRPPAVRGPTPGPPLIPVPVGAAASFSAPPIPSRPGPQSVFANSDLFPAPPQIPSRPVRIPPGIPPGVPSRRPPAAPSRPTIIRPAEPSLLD
UniProt Q15398: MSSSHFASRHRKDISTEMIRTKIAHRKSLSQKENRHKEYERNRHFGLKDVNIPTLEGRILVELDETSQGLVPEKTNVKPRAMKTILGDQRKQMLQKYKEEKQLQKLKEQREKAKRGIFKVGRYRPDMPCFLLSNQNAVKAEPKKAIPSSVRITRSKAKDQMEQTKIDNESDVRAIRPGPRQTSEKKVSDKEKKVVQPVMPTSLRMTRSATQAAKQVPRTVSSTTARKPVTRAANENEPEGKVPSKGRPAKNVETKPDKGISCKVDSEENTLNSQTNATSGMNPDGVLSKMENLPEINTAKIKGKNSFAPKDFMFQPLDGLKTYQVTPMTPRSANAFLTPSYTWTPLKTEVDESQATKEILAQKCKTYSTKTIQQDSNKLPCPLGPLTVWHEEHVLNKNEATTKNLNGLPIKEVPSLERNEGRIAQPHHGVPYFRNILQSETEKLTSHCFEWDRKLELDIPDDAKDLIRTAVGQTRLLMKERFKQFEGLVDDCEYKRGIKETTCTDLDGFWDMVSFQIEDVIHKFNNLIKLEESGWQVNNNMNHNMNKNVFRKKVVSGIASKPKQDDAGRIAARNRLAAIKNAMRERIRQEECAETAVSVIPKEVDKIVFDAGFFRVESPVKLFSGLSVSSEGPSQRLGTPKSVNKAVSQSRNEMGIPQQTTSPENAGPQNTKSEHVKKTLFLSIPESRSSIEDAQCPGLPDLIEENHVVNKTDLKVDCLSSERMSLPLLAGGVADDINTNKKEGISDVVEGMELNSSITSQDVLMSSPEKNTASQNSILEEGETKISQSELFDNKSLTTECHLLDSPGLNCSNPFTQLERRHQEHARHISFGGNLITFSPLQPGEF
UniProt Q9NYP3: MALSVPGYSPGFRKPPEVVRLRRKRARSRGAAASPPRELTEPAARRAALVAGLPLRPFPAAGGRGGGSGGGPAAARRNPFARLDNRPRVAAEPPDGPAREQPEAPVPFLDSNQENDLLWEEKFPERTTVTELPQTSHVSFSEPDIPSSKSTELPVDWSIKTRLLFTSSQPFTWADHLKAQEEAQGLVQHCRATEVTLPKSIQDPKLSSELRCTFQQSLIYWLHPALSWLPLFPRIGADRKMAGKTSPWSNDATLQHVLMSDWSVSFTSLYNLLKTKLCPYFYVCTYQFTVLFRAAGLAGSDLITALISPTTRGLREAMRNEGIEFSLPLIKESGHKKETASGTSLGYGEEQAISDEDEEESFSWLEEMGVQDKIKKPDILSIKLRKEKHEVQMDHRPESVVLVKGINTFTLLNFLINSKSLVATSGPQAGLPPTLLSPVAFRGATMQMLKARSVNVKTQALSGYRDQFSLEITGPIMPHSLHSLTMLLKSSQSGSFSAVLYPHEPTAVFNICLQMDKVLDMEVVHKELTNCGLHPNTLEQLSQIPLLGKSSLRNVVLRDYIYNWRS
UniProt Q5JWR5: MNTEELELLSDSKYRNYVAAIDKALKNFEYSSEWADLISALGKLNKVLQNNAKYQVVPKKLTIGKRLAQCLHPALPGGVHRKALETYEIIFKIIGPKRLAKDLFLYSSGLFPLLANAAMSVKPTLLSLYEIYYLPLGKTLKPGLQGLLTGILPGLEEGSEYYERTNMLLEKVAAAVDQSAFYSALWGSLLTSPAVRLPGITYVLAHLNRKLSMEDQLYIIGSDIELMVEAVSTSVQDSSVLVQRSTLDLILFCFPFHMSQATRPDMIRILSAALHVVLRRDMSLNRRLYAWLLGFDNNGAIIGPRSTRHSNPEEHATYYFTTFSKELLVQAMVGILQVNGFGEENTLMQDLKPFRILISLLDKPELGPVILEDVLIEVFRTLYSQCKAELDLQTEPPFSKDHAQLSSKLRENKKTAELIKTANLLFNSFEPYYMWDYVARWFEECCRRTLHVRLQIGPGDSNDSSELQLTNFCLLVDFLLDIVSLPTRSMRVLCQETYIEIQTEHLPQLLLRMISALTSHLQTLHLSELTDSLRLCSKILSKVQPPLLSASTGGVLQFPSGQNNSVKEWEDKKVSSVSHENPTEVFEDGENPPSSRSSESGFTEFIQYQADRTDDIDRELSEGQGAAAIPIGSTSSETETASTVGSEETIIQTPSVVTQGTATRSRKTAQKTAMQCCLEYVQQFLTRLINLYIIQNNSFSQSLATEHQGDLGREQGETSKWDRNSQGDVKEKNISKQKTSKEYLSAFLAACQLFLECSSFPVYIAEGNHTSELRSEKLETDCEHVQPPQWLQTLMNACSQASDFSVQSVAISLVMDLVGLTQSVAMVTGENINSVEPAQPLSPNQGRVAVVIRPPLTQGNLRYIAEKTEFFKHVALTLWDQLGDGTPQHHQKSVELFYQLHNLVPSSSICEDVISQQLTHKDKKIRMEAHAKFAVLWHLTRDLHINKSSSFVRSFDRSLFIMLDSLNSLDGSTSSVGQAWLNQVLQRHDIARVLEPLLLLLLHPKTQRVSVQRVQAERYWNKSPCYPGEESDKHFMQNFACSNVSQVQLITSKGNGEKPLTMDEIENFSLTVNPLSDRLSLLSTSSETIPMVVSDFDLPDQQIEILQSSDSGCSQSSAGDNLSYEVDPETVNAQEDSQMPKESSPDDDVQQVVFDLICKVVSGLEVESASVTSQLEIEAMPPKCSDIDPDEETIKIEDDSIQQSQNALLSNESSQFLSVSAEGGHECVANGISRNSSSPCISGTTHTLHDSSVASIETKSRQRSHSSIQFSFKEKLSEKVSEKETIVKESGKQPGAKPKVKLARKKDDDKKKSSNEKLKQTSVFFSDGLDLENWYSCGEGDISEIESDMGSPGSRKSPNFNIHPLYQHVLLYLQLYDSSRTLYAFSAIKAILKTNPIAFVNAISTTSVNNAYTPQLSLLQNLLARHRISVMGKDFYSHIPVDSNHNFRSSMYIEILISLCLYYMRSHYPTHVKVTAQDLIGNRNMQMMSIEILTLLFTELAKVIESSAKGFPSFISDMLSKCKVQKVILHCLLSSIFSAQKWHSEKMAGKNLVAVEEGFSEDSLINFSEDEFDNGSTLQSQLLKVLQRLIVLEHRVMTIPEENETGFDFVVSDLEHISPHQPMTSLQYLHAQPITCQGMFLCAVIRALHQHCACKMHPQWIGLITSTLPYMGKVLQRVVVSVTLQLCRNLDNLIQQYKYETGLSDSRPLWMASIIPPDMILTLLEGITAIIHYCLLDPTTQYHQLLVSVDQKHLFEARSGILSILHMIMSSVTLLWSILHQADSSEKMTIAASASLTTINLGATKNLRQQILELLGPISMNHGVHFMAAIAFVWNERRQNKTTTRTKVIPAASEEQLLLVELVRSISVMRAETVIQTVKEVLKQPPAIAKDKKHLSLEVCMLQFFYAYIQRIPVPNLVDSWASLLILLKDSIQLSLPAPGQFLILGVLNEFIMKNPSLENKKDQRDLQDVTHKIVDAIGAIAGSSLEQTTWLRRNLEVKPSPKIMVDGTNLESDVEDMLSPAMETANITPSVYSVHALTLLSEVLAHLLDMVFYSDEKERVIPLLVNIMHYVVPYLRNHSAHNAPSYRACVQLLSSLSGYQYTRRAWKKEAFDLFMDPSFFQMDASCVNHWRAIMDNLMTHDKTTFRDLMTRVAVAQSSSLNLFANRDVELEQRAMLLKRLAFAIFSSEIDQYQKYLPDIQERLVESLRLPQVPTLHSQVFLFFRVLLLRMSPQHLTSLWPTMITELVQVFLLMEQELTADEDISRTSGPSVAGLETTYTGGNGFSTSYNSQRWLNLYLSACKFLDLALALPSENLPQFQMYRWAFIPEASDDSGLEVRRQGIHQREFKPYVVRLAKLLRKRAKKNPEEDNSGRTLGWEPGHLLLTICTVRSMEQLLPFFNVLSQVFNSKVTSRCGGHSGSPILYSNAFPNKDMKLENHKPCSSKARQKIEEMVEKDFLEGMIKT
UniProt Q9H6R0: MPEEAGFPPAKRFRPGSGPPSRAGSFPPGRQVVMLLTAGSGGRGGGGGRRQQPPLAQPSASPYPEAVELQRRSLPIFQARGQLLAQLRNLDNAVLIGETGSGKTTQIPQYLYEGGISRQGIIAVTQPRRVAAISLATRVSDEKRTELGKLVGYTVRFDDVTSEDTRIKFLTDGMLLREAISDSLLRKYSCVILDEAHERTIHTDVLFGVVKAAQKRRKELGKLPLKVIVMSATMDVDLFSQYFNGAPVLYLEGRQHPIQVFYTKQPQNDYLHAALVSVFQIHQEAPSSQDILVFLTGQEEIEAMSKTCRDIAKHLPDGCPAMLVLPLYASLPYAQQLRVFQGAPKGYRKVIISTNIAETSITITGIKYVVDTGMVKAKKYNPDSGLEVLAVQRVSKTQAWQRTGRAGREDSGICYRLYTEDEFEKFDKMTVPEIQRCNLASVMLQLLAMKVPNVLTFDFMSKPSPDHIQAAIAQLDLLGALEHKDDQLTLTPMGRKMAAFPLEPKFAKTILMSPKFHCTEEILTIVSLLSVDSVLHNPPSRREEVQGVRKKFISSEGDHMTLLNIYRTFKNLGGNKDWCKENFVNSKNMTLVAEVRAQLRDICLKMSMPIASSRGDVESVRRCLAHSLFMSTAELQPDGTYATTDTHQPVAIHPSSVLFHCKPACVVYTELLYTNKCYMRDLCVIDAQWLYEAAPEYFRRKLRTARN
UniProt Q6Y2X3: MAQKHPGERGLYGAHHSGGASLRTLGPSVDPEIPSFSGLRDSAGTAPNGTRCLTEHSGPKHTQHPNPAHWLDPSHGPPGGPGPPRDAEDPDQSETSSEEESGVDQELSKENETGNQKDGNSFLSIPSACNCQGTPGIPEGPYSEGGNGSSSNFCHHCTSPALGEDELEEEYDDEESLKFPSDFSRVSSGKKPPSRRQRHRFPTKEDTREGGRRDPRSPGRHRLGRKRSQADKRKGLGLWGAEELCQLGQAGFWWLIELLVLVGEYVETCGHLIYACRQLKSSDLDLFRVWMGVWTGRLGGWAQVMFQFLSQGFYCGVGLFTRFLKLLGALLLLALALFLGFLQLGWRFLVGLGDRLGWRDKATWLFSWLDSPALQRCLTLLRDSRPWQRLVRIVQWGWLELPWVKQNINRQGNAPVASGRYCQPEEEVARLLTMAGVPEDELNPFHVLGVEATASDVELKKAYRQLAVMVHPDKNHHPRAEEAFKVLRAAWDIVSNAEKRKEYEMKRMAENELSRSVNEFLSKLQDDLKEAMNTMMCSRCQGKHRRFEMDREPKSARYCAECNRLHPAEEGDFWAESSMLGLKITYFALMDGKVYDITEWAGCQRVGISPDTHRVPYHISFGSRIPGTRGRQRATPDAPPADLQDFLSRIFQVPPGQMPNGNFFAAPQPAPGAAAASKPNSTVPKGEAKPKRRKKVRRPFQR
UniProt Q6UX07: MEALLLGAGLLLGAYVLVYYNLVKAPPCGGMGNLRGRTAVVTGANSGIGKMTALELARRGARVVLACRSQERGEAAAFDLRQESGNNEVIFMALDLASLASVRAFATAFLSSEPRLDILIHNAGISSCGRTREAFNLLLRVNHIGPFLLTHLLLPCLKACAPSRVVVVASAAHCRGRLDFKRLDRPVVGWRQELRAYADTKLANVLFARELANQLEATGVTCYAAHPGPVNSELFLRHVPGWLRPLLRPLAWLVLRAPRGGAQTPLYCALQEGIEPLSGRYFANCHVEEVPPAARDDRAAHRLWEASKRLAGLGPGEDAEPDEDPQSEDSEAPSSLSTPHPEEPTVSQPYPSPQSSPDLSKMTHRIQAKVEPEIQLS

The list shows a part of the results.

Compound in the test: CN1CCN(CCOc2cc(OC3CCOCC3)c3c(Nc4c(Cl)ccc5c4OCO5)ncnc3c2)CC1 [saracatinib]
The test is described as follows: log2 fold change, soluble protein after heating vs DMSO (PISA); higher = thermal stabilisation; K562 lysate, 10 uM; active = over 0.2 and 3.5 SD of the protein, either way, in both replicates (recomputed). Put shortly: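 Thermal stability, expressed as log-two fold change relative to solvent controls, is given from duplicates. Crude K562 extract in PBS pH 7.4 with 1 mM MgCl2, at 1 mg/mL protein, was treated with 10 μM compound for 30 min and heated in aliquots for 3 min across 48°C-58°C. After pooling, adjustment to 0.5% NP-40 at 4°C and centrifugation at 21,000xg for 90 min, supernatant protein was measured by TMTpro 16plex LC-MS/MS with channel sums equalised.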
As to DNM2 isoform 4 (UniProt P50570), the log2 fold change is inactive: -0.047.

As for DLGAP5 isoform 3 (UniProt Q15398), the log2 fold change was inactive: 0.165.

On to DNAJB9 (UniProt Q9UBS3), for which the log2 fold change is inactive: 0.051.

Take DNM1 (UniProt Q05193): the log2 fold change was inactive: 0.137.

Consider DOCK6 (UniProt Q96HP0), for which the log2 fold change is inactive: -0.043.

For the target DONSON (UniProt Q9NYP3), the log2 fold change is inactive: 0.013.

Turning to DNAJC16 (UniProt Q9Y2G8), the log2 fold change is inactive: 0.026.

On to DMD isoform 14 (UniProt P11532), for which the log2 fold change is inactive: -0.093.

For DOP1A (UniProt Q5JWR5), the log2 fold change was inactive: 0.106.

With DHX33 (UniProt Q9H6R0), the log2 fold change is inactive: -0.056.

With DNAJC14 (UniProt Q6Y2X3), the log2 fold change is inactive: 0.

As to DNPEP (UniProt B9ZVU2), the log2 fold change is inactive: 0.039.

For DHRSX (UniProt Q8N5I4), the log2 fold change was inactive: -0.019.

For DHRS13 (UniProt Q6UX07), the log2 fold change is inactive: -0.031.
